Read-outs that look alike come from different tables or passages of the source.
Test system: primary peritoneal mouse macrophages (PMM)
[1] = selectivity index PMM vs L. infantum

| Compound | SI (vs PMM) [1] | SI (vs PMM) (PMM IC50 vs L. infantum IC50) |
| --- | --- | --- |
| COc1ccc(OC)c(S(=O)(=O)N(Cc2ccc(F)cc2)Cc2cnc(OC)nc2OC)c1 [DNDI0003389321] | 1 | – |
| COc1cc(S(=O)(=O)NCc2ccccc2)c(OC)cc1C [DNDI0002564850] | – | 1 |
| COc1ccc(CN2CCC(F)(F)CC2)cc1S(=O)(=O)N(Cc1ccc(F)cc1)Cc1ccc(F)cc1 [DNDI0003389116] | 14 | – |
| COc1ccc(C)cc1S(=O)(=O)N(CC(=O)NCc1ccc(Cl)cc1)Cc1ccccc1 [DNDI0003363396] | – | 2 |
| CN(C)S(=O)(=O)c1cccc(NC(=O)CN2CCCc3cc(F)cc(F)c32)c1 [Compound Z369155588] | – | 1 |
| COc1ccc(C(=O)N2CCOCC2)cc1S(=O)(=O)N(C)Cc1ccc(F)cc1 [DNDI0003389126] | 1 | – |
| COc1ccc(C(=O)N2CCOCC2)cc1S(=O)(=O)N(Cc1ccccc1)CC(C)(C)C [DNDI0003407876] | 64 | – |
| COc1ccc(C)cc1S(=O)(=O)N(CC(=O)N1CCOCC1)Cc1ccccc1 [DNDI0003363393] | – | 3 |
| COc1ccc(S(=O)(=O)N(Cc2ccccc2C#N)Cc2ccccc2C#N)cc1OC [Compound Z220633250] | – | 7 |
| CC(=O)Nc1ccc(Cl)c(C(=O)NC(Cn2ccnc2)c2ccccc2)c1 (stereo not shown) [DNDI0003363391] | – | 1 |
| COc1ccc(OC)c(S(=O)(=O)N(Cc2ccc(F)cc2)Cc2ccnn2C)c1 [DNDI0003389129] | 9 | – |
| COCCN(Cc1ccccc1)S(=O)(=O)c1cc(C(=O)N2CCNCC2)ccc1OC [DNDI0003392127] | 2 | – |
| COCCN(Cc1ccccc1)S(=O)(=O)c1c(OC)ccc(Cl)c1[S+](C)[O-] (stereo not shown) [DNDI0003578380] | 2 | – |
| Cc1ccc(NC(=O)CN2CCCCc3ccccc32)cc1S(=O)(=O)N1CCOCC1 [Compound Z1318043362] | – | 1 |
| COc1ccc(C(=O)N2CCOCC2)cc1S(=O)(=O)N(Cc1ccccc1)Cc1cnc(C(F)(F)F)nc1 [DNDI0003425509] | 15 | – |
| CC1CCc2ccccc2N1CC(=O)N1CCCc2cc(S(=O)(=O)N(C)C)ccc21 (stereo not shown) [Compound Z195652240] | – | 1 |
| COCCNC(=O)c1ccc(OC)c(S(=O)(=O)N(Cc2ccc(F)cc2)Cc2ccc(F)cc2)c1 [DNDI0003371177] | 62 | – |
| CCCCC1Nc2cc(Cl)c(S(N)(=O)=O)cc2S(=O)(=O)N1Cc1ccccc1 (stereo not shown) [DNDI0003392147] | 9 | – |
| COc1ccc(C(=O)N(C)CCO)cc1S(=O)(=O)N(Cc1ccc(F)cc1)Cc1ccc(F)cc1 [DNDI0003371175] | 31 | – |
| COc1ccc(Cl)cc1S(=O)(=O)N(Cc1ccccc1)C(CO)CO [DNDI0003389933] | 1 | – |
| CCCCOc1cc(C)c(Cl)cc1S(=O)(=O)NCc1cccs1 [DNDI0002620367] | – | 41 |
| COc1ccc(OC)c(S(=O)(=O)N(Cc2ccccc2)Cc2ccccc2)c1 [Compound Z45508995] | – | 32 |
| COc1ccc(C)cc1S(=O)(=O)N(CC(=O)O)Cc1ccccc1 [DNDI0003363399] | – | 1 |
| CN(C)c1ncccc1S(=O)(=O)N(Cc1ccc(F)cc1)Cc1ccc(F)cc1 [DNDI0003389117] | 11 | – |
| CCN(Cc1ccc(F)cc1)S(=O)(=O)c1cc(C(=O)N2CCOCC2)ccc1OC [DNDI0003392124] | 3 | – |
| CCCCNS(=O)(=O)c1cccc(NC(=O)c2cnc(C)cn2)c1 [Compound Z88583029] | – | 1 |
| CCN(CC)S(=O)(=O)c1cc(NC(=O)c2[nH]c(C)c(C(=O)OC)c2C)ccc1C [Compound Z26467494] | – | 2 |
| COc1ccc(S(=O)(=O)N(C)C)cc1NC(=O)CN1C(=O)COc2ccccc21 [Compound Z29560624] | – | 1 |

Reference: publication PMC8126888 (RSC Medicinal Chemistry, 2020)
